# Values joined by “and” are separate entries in the source; they are usually repeats but may differ in a detail not shown here. Identical values can stand only once. The list shows a part of the results. Shown are side measurements of this screen, not its main read-out; they come without a call. For part of these data: Most of these compounds were active or inconclusive in the main read-out, so they are no random draw. For part of these data: Potencies come from curve fits of mixed quality, noted in brackets.
# Protein sequences, listed by entry. Tags and fused reporters are not part of them. Lines headed by an entry give the natural chain unless they say otherwise; changes in a name come on top.
# UniProt P50135: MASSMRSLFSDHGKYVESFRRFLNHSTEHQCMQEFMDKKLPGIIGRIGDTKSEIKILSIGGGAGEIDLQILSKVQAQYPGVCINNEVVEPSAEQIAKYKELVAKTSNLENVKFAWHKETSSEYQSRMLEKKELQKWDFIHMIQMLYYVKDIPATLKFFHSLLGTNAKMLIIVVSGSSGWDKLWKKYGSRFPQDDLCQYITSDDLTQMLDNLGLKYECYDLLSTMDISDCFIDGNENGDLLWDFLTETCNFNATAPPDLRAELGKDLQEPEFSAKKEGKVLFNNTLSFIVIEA
# Tests used:
# [1] = Validation of Assay for Modulators of Lamin A Splicing (AID 1459); conditions: Lamin A splicing dual RFP/GFP fluorescence reporter, ratio
# Procedure, shortened: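 Splicing correction is reported by an EGFP-containing lamin A minigene in stably transfected S3 HeLa cells, while DsRed2 controls for viability and nonspecific signal. Cells are exposed to compounds for 48 hrs before the GFP over RFP ratio is taken.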
# [2] = qHTS Assay for Modulators of Human Peripheral Myelin Protein 22 (PMP22) Expression/Activity (AID 1967); conditions: Cell-based PMP22 reporter, dual-color luciferase ratio
# Procedure, shortened: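 Quantitative HTS in a mouse Schwann cell line expressing dual click beetle luciferases: Pmp22 promoter (green) and control EF-alpha promoter (red). After 24h treatment, corrected green/red signal ratio gave %Activity relative to untreated cells.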
# [3] = S16 Schwann cell PMP22 intronic element beta-lactamase assay (AID 624044); conditions: S16 rat Schwann cells, PMP22 element beta-lactamase FRET, 24 h; measured here: 460 nm blue channel
# Procedure, shortened: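 Beta-lactamase reporter under a PMP22 intronic regulatory element in stable S16 rat Schwann cells; 24 h compound exposure. 460 nm blue signal normalized between DMSO (0%) and potassium clavulanate, with 535 nm FRET tracking viability; curves classed by r2 and response.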
# [4] = A High-Content qHTS Against Drug Library for the Identification of Small Molecules that Inhibit DYT1 Early Onset Primary Dystonia-Associated Cell Pathology (AID 1645839); conditions: HEK293 Flp-In EGFP-delE TorsinA, punctate imaging, 48 h; measured here: cell count cytotoxicity
# Procedure, shortened: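 Cells were seeded and left for 24 h, then dosed with compound alongside tetracycline induction of mutant EGFP-TorsinA. They were incubated for 48 h, fixed in 4% paraformaldehyde, permeabilized and imaged for mislocalization (%pathology) and cell count.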
# [5] = Cell-based coincidence reporter assay to measure PMP22 gene transcription in S16 Pmp22-F2sN cells - Confirmatory screen (AID 1508646); conditions: S16 Schwann cells Pmp22-F2sN, dual luciferase, 24 h; measured here: NLuc reporter channel
# Procedure, shortened: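 S16 rat Schwann cells carrying FLuc-2A-NLuc reporter in Pmp22 3' UTR (500-1,000 cells/well) treated with pinned compounds for 24 h at 37C. Dual-luciferase reads: FLuc luminescence first, then NLuc after Stop&Glo.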
# [6] = qHTS Assay for Lipid Storage Modulators (AID 1519); conditions: Drosophila S3 cells, BODIPY lipid droplet/cell ratio, laser cytometry, cells loaded with oleic acid
# Procedure, shortened: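 Cells seeded at 5,000 per well were treated with compounds over a concentration series and loaded with oleic acid (400 uM, as added). Lipid droplet fluorescence (488 nm excitation, 500-530 nm channel) was read by laser-scanning cytometry and normalized to 20 uM Triacsin C.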
# [7] = qHTS Validation Assay to Find Inhibitors of Chronic Active B-Cell Receptor Signaling (AID 485345); conditions: ABC-DLBCL cells, chronic BCR signaling reporter; measured here: CBR control luciferase (viability counter)
# Procedure, shortened: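 TMD8 ABC-DLBCL cells stably carrying doxycycline-inducible IkappaBalpha–green luciferase fusion plus unfused red luciferase; compounds 46 uM to 3 nM, 4 h at 37C with doxycycline. Corrected green/red luminescence ratio normalized to 10 uM MG-132 and basal cell wells; curves fitted.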
# [8] = qHTS Validation Assay for Iinhibitors of HIV-1 Budding by Blocking the Interaction of PTAP/TSG101 (AID 485342); conditions: TSG101-PTAP binding, fluorescence polarization, 4-point titration; measured here: FITC channel readout
# Procedure, shortened: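 Fluorescence anisotropy measured PTAP-Tsg101 interaction. Final concentrations were 10 uM protein domain and 50 nM labeled peptide, equilibrated 20 min at room temperature.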
# [9] = Nrf2 qHTS screen for inhibitors: Validation (AID 493153); conditions: A549 ARE-Fluc reporter, 18-24 h; AC50: CellTiter-Fluor fluorescence read, measured here: cytotoxicity CellTiter-Fluor AC50; viability change: measured here: cytotoxicity max response
# Procedure, shortened: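 Concentration-response test in A549 ARE_Fluc reporter cells (5% FBS OPTI-MEM), compound exposure 18-24 h at 37°C, 5% CO2. Cell viability measured first by CellTiter-Fluor fluorescence; ARE-driven luciferase luminescence then measured as Nrf2 activity.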
# [10] = target: Histamine N-methyltransferase (Homo sapiens) (UniProt P50135); experiment: Confirmatory Screen for Target Class Profiling of Small Molecule Inhibitors of Methyltransferases (AID 1745852); conditions: MTase-Glo luminescence, SAH detection, recombinant enzyme; measured here: HNMT inhibition potency
# [11] = qHTS drug screen for cell cycle checkpoint inhibitors in PARPi-resistant BRCA-mutant ovarian cancer cell lines. (AID 1963452); conditions: PEO1/OlaR viability, CellTiter-Glo luminescence, 96 h
# Procedure, shortened: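 PEO1, PEO4 and PEO1/OlaR ovarian cancer cells, 600 per well, exposed 96 h at 37C to a dilution series. Viability read by CellTiter-Glo luminescence, normalized to DMSO and empty wells; activity summarized as Z-AUC.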
# [12] = measured here: green reporter channel AC50, mouse Pmp22 promoter in mouse Schwann cells
# [13] = measured here: red reporter channel AC50, EF-alpha promoter control reporter in MSC80 mouse Schwann cells
smiles,measurement,setting,value
CNCCCC1c2ccccc2C=Cc2ccccc21,AC50,[1]; measured here: GFP channel,"17.8 µM [falling, single point]"
same,AC50,[2]; [12],"23.9 µM [falling, full curve]"
same,AC50,[2]; [13],"30.1 µM [falling, full curve]"
same,AC50,[3],"10.7 µM [falling, single point]"
same,AC50,[4],"3.55 µM [falling, full curve]"
CC1CCN(C(=O)CCS(=O)(=O)c2cc3c(cc2Cl)NC(=O)CO3)CC1,AC50,[5],"19.3 µM [falling, partial curve, poor fit]"
COCCCC/C(=N\OCCN)c1ccc(C(F)(F)F)cc1,AC50,[1]; measured here: GFP channel,"35.5 µM [falling, single point]"
same,max response,[6]; measured here: cell count channel max response,48.5%
same,max response,[6]; measured here: lipid channel max response,44.7%
same,AC50,[2]; [12],"33.8 µM [falling, full curve]"
same,AC50,[2]; [13],"30.1 µM [falling, full curve]"
same,AC50,[7],"25.9 µM [falling, single point]"
CCOc1cc(CNc2ccc(O)cc2)ccc1OCc1ccc(Cl)cc1,AC50,[5],"6.11 µM [falling, partial curve]"
CCN(CC)CCCC(C)Nc1c2ccc(Cl)cc2nc2ccc(OC)cc12 (centres undefined),AC50,[1]; measured here: RFP channel,"25.1 µM [falling, single point]"
same,AC50,[2]; [12],"33.8 µM [falling, full curve]"
same,AC50,[2]; [13],"15.1 µM [falling, full curve]"
same,AC50,[8],"50.1 µM [falling, partial curve]"
same,AC50,[7],"6.51 µM [falling, partial curve]"
same,AC50,[9],"16.4 µM [falling, single point]"
same,viability change,[9],-45.9%
same,AC50,[4],"28.2 µM [falling, single point]"
same,IC50,[10],"17.2 µM [falling, partial curve] and 5.27 µM [falling, partial curve]"
same,AC50,[11]; measured here: PEO1 parental viability,"6.92 µM [falling, partial curve]"
same,AC50,[11]; measured here: PEO4 viability,"6.16 µM [falling, partial curve]"

# — PubChem BioAssay (NCATS)
